For at least one compound, name, drawing or mass did not settle the structure.
How the values were obtained:
HIV-1 B and C subtypes = assay: Inhibition of HIV-1 subtypes; assay type: cell-based
HIV RNA = assay: RNA CaptureSeq of HIV RNA splicing in infected PBMCs; assay type: cell-based, HIV-1; conditions: cells infected by YU-2 and Ada-M strains
Procedure: Total RNA was extracted from infected and uninfected PBMC samples using TRIzol reagent (Invitrogen) following the manufacturer's protocol. The RNA concentrations and purity were determined using the RNA 6000 Bioanalyzer kit (Agilent). For cDNA synthesis, 1 μg of total RNA was treated with DNase I (Invitrogen) and then utilized as a template for reverse transcription using the Verso cDNA kit with a blend of random hexamers and anchored oligo-dT (Thermo Scientific), according to the manufacturer's instructions. After KAPA Hyper Prep (ROCHE) library preparation from 1 μg total RNA, we proceeded with SeqCap EZ capture (ROCHE) following the manufacturer's recommendations. […] Sequencing was performed on a NextSeq 500 (Illumina) with 18 samples on a HighOutput Cartridge (2×400 million reads of 75 bases each). […]
PBMCs from 6 HIV-negative donors were infected with the YU-2 strain, followed by treatment with ABX464. […] To highlight potential new splicing events induced by ABX464, we used a custom bioinformatics pipeline with the main step involving the assembly of putative transcripts from targeted RNA sequencing reads to construct contigs (Illumina paired-end 2×75 bp) (FIGS. 6 A and B). […] The HIV profiling datasets used in our analysis yielded high sequence coverage (2 to 30 million reads for the 9 kb genome), allowing deep quantification of HIV splice variants. […]

FC(F)(F)Oc1ccc(Nc2ccc3cccc(Cl)c3n2)cc1 [ABX464, 8-chloro-N-(4-(trifluoromethoxy)phenyl)quinolin-2-amine]
inhibition of HIV-1 B and C subtypes (HIV-1 B and C subtypes): strongly inhibited
generation of new HIV splice variant (HIV RNA): generated a new HIV splice variant

From patent US20220145406A1, “BIOMARKERS, AND USES IN TREATMENT OF VIRAL INFECTIONS, INFLAMMATIONS, OR CANCER” (ABIVAX, priority 2018, published 2022)
